Measured data: PubChem BioAssay AID1259314 (Drosophila RNAi Screening Center, 2017)
Purpose: 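Transmembrane protein genes affecting ATP after manganese overload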 (primary screen). System: Drosophila S2R+ cells. Reagent: long dsRNA against Drosophila genes. Duration: 5 days (4 days knock-down, then 1 day metal exposure). Conditions: manganese chloride added to 15 mM for 24 hours. Read-out: 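Luciferase ATP signal used as a proxy for viable cell number, reported as one averaged z-score per dsRNA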. Direction: mean ATP z-score: higher = more ATP than the plate average, more viable cells under manganese. Hit rule: 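a mean ATP z-score past 1.5 in either direction is called active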. Calls: active = strong ATP change, up or down; inactive = no strong ATP change.
Shown is one part, drawn at random, of about 3,100 deposited reagents. Over the whole deposit, 289 (9.3%) got an active call. 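Active includes both higher and lower ATP than plate average; check the z-score sign for direction.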 Entries without a mark were called inactive. A plus sign joins genes that one reagent is predicted to hit. No sequences are given here. Not given: the amount of reagent.

gene knocked down	amplicon	mean ATP z-score
CG16736	DRSC15145	0.0205
Ir47a (Ionotropic receptor 47a)	DRSC06215	-1.03
p24-1 (p24-related-1)	DRSC19827	0.98
p24-1 (p24-related-1)	DRSC26718	-0.158
Fas3 (Fasciclin 3)	DRSC03326	-0.581
Fas3 (Fasciclin 3)	DRSC22776	1.69 (active)
Fas3 (Fasciclin 3)	DRSC28665	-1.24
CG30047	DRSC05340	-0.405
ste24a (prenyl protease type I)	DRSC07314	-0.246
ste24a (prenyl protease type I)	DRSC26491	0.0936
CG31100	DRSC14453	0.0861
CG31100	DRSC14455	1.23
CG5810	DRSC21921	0.443
CG5810	DRSC39633	1.33
blot (bloated tubules)	DRSC11328	-0.637
blot (bloated tubules)	DRSC26157	1.3
Gr93d (Gustatory receptor 93d)	DRSC21941	0.149
Dop1R2 (Dopamine 1-like receptor 2)	DRSC13958	-1.44
Dop1R2 (Dopamine 1-like receptor 2)	DRSC28272	1.89 (active)
AstA-R2 (Allatostatin A receptor 2)	DRSC24820	0.0368
Hip14 (Huntingtin-interacting protein 14)	DRSC10570	-0.0743
Sys1 (Sys1 golgi trafficking protein)	DRSC14372	1.15
CG32795	DRSC18609	0.03
CG32795	DRSC18610	0.264
Ir60b (Ionotropic receptor 60b)	DRSC04217	0.299
OtopLb (Otopetrin-like b)	DRSC00594	-0.856
OtopLb (Otopetrin-like b)	DRSC27337	-0.89
lz (lozenge)	DRSC25157	2.1 (active)
lz (lozenge)	DRSC37587	-0.169
Best3 (Bestrophin 3)	DRSC09880	-1.45
Best3 (Bestrophin 3)	DRSC39740	-0.41
wwk (white walker)	DRSC01941	-1.1
Or85a (Odorant receptor 85a)	DRSC16764	-0.0577
Gfrl (Glial cell line-derived neurotrophic family receptor-like)	DRSC15196	0.192
Gfrl (Glial cell line-derived neurotrophic family receptor-like)	DRSC25385	0.718
Oatp58Db (Organic anion transporting polypeptide 58Db)	DRSC04364	0.0188
CR7448 (pseudo)	DRSC11828	2.4 (active)
CR7448 (pseudo)	DRSC22485	-0.433
CG3829	DRSC04423	3.02 (active)
ppk30 (pickpocket 30)	DRSC15302	0.101
ppk30 (pickpocket 30)	DRSC39594	-0.0726
robo1 (roundabout 1)	DRSC04712	-1.19
tw (twisted)	DRSC18537	0.0584
tw (twisted)	DRSC39796	1.45
Hacd2 (3-hydroxyacyl-CoA dehydratase 2)	DRSC03181	-1
sax (saxophone)	DRSC07675	0.105
sax (saxophone)	DRSC26844	-0.262
sax (saxophone)	DRSC37004	-0.135
m (miniature)	DRSC20181	0.267
m (miniature)	DRSC29636	-0.135
CG32053	DRSC10683	-0.417
CG10864	DRSC14273	-0.149
CG15814	DRSC19730	-0.103
CG15814	DRSC39869	0.85
emb (embargoed)	DRSC03528	5.62 (active)
CG5021	DRSC10469	0.287
CG5021	DRSC39741	-0.379
InR (Insulin-like receptor)	DRSC16717	-0.128
InR (Insulin-like receptor)	DRSC36685	0.585
InR (Insulin-like receptor)	DRSC36686	0.217
CG4101	DRSC10400	1.15
CG3149	DRSC17732	1.1
CG3149	DRSC27511	-0.287
CG42818	DRSC01963	0.117
CG14223	DRSC24816	-1.29
CG14223	DRSC39909	1.2
ACXB (Adenylyl cyclase X B)	DRSC26343	-1.24
ACXB (Adenylyl cyclase X B)	DRSC39703	1.33
rho-7 + CG34231	DRSC39477	2.22 (active)
E23 (Early gene at 23)	DRSC00593	-0.392
E23 (Early gene at 23)	DRSC25491	-0.452
ZnT49B (Zinc transporter 49B)	DRSC07225	-0.684
ZnT49B (Zinc transporter 49B)	DRSC38001	0.442
CG31523	DRSC12009	0.777
CG31523	DRSC27253	0.844
CG12446	DRSC20618	-0.365
CG32669	DRSC18864	-0.378
CG9663	DRSC00724	-0.852
G6P (Glucose-6-Phosphatase)	DRSC00414	1.01
G6P (Glucose-6-Phosphatase)	DRSC27121	-0.535
comm (commissureless)	DRSC11336	-0.385
comm (commissureless)	DRSC24259	0.317
nes (nessy)	DRSC11375	-0.178
nes (nessy)	DRSC39655	-1.02
Or67b (Odorant receptor 67b)	DRSC11241	0.921
Or67b (Odorant receptor 67b)	DRSC39658	1.36
CG31522	DRSC12005	1.46
CG31522	DRSC29792	1.31
ihog (interference hedgehog)	DRSC03157	0.71
ihog (interference hedgehog)	DRSC29581	-0.597
sNPF-R (short neuropeptide F receptor)	DRSC10836	-0.59
PGRP-SC1b (Peptidoglycan recognition protein SC1b)	DRSC07215	0.243
CG4576	DRSC15604	2.01 (active)
CG4576	DRSC26364	0.229
amrt (amaretto)	DRSC19378	0.191
amrt (amaretto)	DRSC26943	-0.44
CG4168	DRSC01447	1.14
CG4168	DRSC01933	0.287
CG4168	DRSC22789	0.393
Inx3 (Innexin 3)	DRSC14857	0.362
Inx3 (Innexin 3)	DRSC24037	-0.941
Gr36a (Gustatory receptor 36a)	DRSC22663	0.466
Gr36a (Gustatory receptor 36a)	DRSC27724	-0.451
ninaD (neither inactivation nor afterpotential D)	DRSC02886	-0.455
ninaD (neither inactivation nor afterpotential D)	DRSC24484	-0.339
Cds + Setx	DRSC27090	-0.671
NaPi-III (Na[+]-dependent inorganic phosphate cotransporter type III)	DRSC10893	-0.274
NaPi-III (Na[+]-dependent inorganic phosphate cotransporter type III)	DRSC28299	0.736
Gr58c (Gustatory receptor 58c)	DRSC04136	-0.426
CG31689	DRSC00734	1.4
CG31689	DRSC24715	-0.597

Copied from the entries so far for reference:
gene knocked down	amplicon	mean ATP z-score
Or67b (Odorant receptor 67b)	DRSC11241	0.921
Or67b (Odorant receptor 67b)	DRSC39658	1.36
CG31522	DRSC12005	1.46
CG31522	DRSC29792	1.31
ihog (interference hedgehog)	DRSC03157	0.71
ihog (interference hedgehog)	DRSC29581	-0.597
